What follows is the remainder of the data, with few or none of the targets with a hit. Single values of this set are uncertain. The list shows a part of the results, in another mix than the full data.
compound: COC(=O)/C=C/c1ccccc1 [methyl cinnamate]; test: log2 ratio of iodoacetamide-alkyne labeling of the cysteine site, DMSO over compound (competition); higher = stronger covalent engagement of the cysteine by the compound, active = 1 or more; settings: 500 µM; treatment time 1 h; system: HEK293T cell lysate
Summary of the method: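 The log2 competition ratio per cysteine is defined as mean reporter intensity in control channels over mean reporter intensity in compound channels. Lysate from HEK293T cells (2 mg/mL) received electrophile (500 µM) or vehicle for 1 h at ambient temperature, followed by iodoacetamide alkyne for 1 h. Samples were clicked to sCIP-TMT reagents, pooled, trypsin-digested overnight at 37 °C, streptavidin-enriched, acid-eluted and run on Orbitrap Eclipse LC-MS/MS with FAIMS, with quantification in FragPipe. Three replicates with duplicate channels were used, and any cysteine quantified in only one replicate was excluded.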

Amino acid sequences for entries named in this document (tags omitted). A change or cut given only in a name is not applied to a line headed by its entry.
UniProt P46013: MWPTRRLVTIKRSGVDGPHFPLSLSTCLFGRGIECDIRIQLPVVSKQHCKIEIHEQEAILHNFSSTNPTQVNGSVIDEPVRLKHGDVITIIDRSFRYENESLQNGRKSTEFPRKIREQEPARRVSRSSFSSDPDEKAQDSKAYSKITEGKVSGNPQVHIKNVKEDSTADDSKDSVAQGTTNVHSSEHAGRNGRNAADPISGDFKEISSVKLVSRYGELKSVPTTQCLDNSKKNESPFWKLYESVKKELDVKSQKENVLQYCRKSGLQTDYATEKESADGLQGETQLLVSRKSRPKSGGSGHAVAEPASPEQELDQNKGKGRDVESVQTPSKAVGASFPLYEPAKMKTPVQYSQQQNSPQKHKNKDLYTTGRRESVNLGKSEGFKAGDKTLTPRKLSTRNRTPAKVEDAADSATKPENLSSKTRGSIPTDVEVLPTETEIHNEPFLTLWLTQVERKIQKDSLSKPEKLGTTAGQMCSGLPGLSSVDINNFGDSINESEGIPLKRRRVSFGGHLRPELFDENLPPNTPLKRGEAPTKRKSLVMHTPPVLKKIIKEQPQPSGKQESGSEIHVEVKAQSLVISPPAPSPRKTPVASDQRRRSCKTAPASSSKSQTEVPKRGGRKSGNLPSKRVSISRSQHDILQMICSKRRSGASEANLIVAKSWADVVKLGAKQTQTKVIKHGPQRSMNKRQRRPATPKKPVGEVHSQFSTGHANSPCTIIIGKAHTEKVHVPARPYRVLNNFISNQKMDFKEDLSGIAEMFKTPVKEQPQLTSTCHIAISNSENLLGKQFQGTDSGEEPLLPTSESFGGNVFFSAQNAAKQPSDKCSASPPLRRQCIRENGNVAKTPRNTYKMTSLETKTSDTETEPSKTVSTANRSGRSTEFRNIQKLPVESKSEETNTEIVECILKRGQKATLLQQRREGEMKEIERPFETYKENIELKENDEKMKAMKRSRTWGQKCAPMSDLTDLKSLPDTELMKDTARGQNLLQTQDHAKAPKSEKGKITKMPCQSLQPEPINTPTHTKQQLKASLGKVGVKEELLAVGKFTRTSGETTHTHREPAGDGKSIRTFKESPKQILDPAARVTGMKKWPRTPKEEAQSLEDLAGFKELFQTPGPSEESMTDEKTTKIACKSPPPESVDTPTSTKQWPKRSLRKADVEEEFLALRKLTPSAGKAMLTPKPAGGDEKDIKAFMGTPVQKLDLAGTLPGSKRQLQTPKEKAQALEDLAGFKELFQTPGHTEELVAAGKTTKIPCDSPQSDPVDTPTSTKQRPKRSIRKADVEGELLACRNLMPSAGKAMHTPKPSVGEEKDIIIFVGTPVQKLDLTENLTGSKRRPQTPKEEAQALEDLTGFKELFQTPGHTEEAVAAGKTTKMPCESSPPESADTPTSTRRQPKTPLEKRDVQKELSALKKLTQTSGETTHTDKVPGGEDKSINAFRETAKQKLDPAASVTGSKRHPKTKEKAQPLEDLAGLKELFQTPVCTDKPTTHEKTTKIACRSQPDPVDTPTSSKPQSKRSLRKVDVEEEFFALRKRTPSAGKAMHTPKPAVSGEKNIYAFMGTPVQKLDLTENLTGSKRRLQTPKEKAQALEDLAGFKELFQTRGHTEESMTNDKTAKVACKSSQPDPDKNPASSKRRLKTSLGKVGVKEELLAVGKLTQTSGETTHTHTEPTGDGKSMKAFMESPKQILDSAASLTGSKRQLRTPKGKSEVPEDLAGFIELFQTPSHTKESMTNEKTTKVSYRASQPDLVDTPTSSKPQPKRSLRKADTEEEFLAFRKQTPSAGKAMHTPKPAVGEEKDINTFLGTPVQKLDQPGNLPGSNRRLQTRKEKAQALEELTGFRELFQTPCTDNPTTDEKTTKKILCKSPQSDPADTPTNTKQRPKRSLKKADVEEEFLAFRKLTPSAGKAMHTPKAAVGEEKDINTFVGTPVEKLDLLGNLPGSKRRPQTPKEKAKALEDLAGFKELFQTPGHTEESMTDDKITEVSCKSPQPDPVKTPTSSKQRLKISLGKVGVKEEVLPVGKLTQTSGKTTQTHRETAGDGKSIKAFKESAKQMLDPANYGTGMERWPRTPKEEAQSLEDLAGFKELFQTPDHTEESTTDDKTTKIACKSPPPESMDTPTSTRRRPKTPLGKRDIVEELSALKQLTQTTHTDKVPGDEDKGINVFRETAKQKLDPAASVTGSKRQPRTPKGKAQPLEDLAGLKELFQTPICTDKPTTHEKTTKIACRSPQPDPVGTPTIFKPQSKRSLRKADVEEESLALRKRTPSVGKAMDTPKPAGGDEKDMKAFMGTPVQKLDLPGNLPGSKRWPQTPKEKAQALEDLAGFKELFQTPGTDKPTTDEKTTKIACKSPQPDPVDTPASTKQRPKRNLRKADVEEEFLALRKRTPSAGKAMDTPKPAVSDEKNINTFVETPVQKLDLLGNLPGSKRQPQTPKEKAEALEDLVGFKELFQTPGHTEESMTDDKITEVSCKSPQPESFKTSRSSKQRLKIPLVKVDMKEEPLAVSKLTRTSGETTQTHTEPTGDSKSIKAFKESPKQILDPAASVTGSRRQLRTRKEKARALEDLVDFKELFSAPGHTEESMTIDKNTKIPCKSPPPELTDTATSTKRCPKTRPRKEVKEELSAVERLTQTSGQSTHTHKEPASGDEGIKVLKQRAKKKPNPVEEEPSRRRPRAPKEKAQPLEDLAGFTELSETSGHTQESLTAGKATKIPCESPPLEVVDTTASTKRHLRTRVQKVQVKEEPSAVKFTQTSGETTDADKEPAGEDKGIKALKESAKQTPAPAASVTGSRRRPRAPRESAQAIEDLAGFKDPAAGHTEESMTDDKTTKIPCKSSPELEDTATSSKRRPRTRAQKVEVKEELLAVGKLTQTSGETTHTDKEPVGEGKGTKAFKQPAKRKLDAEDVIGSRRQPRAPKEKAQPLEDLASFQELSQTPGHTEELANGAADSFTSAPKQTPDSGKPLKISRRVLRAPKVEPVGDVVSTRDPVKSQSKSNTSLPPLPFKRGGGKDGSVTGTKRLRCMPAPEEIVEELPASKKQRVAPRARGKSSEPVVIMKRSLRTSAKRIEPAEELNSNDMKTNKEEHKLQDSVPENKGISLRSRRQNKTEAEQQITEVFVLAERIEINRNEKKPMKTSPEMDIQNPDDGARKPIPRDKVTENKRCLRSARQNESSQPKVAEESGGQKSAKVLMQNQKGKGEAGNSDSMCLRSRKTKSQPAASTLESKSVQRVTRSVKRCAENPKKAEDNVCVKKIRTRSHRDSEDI
UniProt P43243: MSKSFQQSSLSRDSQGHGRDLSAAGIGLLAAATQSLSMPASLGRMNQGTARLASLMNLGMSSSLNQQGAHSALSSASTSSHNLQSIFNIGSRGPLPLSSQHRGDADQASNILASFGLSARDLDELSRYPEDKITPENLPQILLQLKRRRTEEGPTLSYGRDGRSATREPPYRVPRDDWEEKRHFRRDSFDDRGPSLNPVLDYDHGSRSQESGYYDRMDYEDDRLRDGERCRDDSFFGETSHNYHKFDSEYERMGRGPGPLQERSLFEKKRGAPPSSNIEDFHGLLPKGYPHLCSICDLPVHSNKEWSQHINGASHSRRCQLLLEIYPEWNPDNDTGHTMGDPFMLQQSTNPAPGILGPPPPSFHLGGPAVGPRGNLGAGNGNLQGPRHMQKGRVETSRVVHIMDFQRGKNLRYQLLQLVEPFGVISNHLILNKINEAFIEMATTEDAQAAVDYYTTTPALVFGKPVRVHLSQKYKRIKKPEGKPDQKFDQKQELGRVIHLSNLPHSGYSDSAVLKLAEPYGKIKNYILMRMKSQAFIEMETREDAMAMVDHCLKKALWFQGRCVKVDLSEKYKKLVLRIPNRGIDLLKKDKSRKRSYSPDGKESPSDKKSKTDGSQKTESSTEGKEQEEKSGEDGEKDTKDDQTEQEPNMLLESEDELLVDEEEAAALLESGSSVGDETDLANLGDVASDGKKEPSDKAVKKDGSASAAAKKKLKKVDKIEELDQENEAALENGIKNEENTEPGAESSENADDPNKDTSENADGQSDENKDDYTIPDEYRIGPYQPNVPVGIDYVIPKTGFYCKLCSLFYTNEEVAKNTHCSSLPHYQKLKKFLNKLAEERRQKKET
UniProt P46821: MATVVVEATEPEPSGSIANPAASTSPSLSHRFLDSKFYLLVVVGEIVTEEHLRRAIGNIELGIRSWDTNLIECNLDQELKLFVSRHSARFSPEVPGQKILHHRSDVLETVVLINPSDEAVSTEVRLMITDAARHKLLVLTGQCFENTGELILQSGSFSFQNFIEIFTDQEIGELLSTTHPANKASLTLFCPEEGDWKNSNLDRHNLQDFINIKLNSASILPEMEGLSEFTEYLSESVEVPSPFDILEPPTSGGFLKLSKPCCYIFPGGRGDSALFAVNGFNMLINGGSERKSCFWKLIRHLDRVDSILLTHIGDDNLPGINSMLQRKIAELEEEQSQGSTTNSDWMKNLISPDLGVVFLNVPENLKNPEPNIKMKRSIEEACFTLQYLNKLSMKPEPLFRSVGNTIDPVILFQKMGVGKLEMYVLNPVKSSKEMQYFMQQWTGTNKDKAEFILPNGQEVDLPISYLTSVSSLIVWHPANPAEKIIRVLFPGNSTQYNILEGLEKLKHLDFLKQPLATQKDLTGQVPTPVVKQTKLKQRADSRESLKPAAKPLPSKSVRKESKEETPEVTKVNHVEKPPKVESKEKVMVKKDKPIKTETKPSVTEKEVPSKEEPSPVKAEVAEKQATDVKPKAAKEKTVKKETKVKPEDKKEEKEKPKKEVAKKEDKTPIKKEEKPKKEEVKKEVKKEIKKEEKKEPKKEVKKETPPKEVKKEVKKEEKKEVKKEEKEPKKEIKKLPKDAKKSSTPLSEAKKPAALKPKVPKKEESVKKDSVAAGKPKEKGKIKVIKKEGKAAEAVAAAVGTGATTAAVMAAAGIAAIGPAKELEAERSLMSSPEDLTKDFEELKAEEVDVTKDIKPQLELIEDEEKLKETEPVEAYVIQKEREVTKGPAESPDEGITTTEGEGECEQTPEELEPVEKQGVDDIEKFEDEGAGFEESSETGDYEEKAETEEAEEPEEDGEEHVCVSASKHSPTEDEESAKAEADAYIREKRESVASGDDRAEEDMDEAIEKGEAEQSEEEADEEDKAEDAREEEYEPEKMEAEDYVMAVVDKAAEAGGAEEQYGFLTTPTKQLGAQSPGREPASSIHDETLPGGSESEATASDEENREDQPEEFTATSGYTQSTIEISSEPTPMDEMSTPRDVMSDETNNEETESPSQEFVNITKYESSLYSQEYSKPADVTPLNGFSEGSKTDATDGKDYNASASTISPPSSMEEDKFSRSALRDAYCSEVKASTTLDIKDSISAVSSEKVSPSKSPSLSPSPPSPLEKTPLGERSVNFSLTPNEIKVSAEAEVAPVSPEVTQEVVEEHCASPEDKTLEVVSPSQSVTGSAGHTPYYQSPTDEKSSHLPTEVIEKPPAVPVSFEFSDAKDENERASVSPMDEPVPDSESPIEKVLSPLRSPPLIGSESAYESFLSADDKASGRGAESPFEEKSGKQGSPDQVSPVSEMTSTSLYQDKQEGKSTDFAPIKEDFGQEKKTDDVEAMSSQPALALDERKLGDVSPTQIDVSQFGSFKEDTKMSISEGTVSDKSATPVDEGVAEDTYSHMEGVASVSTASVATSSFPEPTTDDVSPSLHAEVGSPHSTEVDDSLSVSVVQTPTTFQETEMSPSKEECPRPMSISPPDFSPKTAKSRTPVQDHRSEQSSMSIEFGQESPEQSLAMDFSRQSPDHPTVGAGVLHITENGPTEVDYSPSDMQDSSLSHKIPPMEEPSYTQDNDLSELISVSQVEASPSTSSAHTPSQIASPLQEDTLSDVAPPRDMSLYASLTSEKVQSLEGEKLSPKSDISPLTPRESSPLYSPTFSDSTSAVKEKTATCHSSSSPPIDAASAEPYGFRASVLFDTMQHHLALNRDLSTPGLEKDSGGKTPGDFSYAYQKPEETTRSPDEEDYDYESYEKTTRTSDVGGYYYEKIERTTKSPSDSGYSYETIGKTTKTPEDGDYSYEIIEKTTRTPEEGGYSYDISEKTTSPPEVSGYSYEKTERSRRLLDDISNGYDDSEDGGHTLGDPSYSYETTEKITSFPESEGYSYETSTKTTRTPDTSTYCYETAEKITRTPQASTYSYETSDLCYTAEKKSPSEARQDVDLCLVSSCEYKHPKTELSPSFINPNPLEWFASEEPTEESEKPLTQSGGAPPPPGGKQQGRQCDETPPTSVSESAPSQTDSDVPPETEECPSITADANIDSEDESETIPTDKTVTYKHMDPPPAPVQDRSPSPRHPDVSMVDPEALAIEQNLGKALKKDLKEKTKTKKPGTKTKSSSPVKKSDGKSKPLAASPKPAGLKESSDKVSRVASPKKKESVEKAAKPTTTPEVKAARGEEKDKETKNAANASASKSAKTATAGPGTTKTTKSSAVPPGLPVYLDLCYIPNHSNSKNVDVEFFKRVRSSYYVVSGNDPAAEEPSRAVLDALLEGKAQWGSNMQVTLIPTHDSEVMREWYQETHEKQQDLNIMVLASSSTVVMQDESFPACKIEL

log2 ratio of iodoacetamide-alkyne labeling, inactive:
UniProt P49591_C117 0.0664
FASN C1186 (UniProt P49327) 0.278
SEPHS1 C31 (UniProt P49903) 0.0157
RPS5 C155 (UniProt P46782) 0.00966
CAPZB C8 (UniProt P47756) 0.59
MKI67 C1373 (UniProt P46013) 0.325
UniProt P49840_C262 0.308
QARS C556 (UniProt P47897) -0.313
MKI67 C1981 (UniProt P46013) -0.289
FASN C2091 (UniProt P49327) -0.308
HCFC1 C1895 (UniProt P51610) 0.228
CCT5 C493 (UniProt P48643) 0.243
UTRN C1059 (UniProt P46939) 0.0163
PREP C255 (UniProt P48147) -0.0778
LRBA C1228 (UniProt P50851) 0.24
PSMD8 C112 (UniProt P48556) 0.234
MCM2 C522 (UniProt P49736) -0.138
PAPOLA C293 (UniProt P51003) 0.156
MKI67 C903 (UniProt P46013) 0.305
CCT3 C372 (UniProt P49368) 0.358
MKI67 C1285 (UniProt P46013) 0.257
MECP2 C413 (UniProt P51608) 0.0786
CCT8 C187 (UniProt P50990) 0.0218
MSH2 C822 (UniProt P43246) 0.00108
CCT5 C377 (UniProt P48643) 0.396
CCT4 C221 (UniProt P50991) -0.143
MATR3 C821 (UniProt P43243) 0.169
UTRN C3023 (UniProt P46939) 0.143
MAP1B C73 (UniProt P46821) -0.0781
DNM2 C607 (UniProt P50570) -0.0224
MKI67 C3241 (UniProt P46013) 0.262
RANBP2 C3071 (UniProt P49792) 0.102
DNA2 C1051 (UniProt P51530) 0.0793
DNA2 C569 (UniProt P51530) 0.252
MAP1B C2361 (UniProt P46821) 0.179
LIMS1 C121 (UniProt P48059) 0.149
RPL34 C46 (UniProt P49207) 0.227

2 neighbouring entries already listed, quoted:
log2 ratio of iodoacetamide-alkyne labeling, inactive:
MAP1B C73 (UniProt P46821) -0.0781
DNM2 C607 (UniProt P50570) -0.0224

Reference: the supplement of paper PMC11006884
